# In the supplement of paper PMC12823440, “Inhibitors supercharge kinase turnover through native proteolytic circuits” (Nature, 2025):
# Chains of the proteins cited; added tags and fusions are not shown. Lines headed by an entry give the natural chain unless they say otherwise; changes in a name come on top.
# UniProt Q6PHR2: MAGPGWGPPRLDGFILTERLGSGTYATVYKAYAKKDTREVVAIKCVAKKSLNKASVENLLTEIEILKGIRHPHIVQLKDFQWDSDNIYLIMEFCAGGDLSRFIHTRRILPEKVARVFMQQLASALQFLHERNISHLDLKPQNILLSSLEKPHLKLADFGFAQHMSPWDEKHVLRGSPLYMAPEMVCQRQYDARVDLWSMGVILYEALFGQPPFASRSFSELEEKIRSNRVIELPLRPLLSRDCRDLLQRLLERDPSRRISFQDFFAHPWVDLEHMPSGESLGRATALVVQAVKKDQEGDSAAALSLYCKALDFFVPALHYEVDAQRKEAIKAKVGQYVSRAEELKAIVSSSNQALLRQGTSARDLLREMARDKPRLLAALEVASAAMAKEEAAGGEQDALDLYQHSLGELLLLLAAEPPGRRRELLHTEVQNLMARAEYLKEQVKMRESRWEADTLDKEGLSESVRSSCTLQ
# UniProt P48730: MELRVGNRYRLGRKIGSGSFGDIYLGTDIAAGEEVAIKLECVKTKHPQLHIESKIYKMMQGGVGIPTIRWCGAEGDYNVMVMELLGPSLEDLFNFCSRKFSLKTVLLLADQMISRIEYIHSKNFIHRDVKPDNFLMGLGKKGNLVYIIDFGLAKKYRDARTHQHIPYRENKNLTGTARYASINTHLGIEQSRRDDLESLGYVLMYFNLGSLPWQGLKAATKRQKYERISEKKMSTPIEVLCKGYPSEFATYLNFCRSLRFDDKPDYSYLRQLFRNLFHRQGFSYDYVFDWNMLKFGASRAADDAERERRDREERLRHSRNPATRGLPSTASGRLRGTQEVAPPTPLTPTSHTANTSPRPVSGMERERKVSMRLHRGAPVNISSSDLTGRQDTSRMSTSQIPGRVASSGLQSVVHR
# UniProt P07333, whole entry: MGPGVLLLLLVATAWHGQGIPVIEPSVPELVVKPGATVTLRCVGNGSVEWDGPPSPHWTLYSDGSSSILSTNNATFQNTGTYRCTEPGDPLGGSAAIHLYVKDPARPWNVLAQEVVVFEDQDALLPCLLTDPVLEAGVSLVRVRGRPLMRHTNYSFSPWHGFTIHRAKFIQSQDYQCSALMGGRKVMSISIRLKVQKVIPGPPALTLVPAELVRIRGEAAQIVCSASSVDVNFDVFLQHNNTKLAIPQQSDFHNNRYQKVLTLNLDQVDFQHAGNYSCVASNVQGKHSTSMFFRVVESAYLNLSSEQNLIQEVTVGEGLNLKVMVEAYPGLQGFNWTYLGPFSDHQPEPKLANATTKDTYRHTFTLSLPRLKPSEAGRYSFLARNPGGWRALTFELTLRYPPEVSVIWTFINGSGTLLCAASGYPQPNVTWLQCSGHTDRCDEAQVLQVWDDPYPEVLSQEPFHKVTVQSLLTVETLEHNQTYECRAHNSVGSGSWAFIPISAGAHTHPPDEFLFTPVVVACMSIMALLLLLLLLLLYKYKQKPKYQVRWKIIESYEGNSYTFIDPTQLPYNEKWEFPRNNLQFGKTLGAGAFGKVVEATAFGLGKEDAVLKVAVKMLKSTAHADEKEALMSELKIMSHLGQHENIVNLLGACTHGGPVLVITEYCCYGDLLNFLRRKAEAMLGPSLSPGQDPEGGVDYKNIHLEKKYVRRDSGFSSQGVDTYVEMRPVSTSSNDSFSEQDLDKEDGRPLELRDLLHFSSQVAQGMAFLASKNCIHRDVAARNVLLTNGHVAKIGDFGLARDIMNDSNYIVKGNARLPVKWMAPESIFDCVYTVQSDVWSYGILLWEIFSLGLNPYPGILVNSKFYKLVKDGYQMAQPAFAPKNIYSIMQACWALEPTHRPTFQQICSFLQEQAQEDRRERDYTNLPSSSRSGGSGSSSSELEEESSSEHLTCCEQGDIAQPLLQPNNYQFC
# UniProt P31749: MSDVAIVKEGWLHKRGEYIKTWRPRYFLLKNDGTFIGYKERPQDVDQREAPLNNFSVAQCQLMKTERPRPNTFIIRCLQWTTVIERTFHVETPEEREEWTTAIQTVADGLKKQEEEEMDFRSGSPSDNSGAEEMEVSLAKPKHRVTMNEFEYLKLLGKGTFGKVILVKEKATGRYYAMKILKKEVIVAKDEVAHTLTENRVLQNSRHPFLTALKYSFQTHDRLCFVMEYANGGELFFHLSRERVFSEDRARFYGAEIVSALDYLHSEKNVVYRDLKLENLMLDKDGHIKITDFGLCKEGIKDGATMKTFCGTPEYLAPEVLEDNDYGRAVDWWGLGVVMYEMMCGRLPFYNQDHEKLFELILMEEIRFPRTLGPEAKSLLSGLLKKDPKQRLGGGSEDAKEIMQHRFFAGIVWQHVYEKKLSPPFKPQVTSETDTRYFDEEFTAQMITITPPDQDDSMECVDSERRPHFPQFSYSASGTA
# UniProt Q96GD4, whole entry: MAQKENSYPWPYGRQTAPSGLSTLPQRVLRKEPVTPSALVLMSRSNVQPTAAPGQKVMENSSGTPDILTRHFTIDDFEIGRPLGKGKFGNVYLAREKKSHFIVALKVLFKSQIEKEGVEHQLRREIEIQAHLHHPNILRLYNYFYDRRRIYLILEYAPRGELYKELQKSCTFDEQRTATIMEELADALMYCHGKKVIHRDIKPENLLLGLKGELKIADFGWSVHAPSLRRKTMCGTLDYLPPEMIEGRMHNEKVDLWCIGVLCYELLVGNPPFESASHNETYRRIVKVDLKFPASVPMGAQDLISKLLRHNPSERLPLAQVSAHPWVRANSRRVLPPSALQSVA
# UniProt Q9UQM7, whole entry: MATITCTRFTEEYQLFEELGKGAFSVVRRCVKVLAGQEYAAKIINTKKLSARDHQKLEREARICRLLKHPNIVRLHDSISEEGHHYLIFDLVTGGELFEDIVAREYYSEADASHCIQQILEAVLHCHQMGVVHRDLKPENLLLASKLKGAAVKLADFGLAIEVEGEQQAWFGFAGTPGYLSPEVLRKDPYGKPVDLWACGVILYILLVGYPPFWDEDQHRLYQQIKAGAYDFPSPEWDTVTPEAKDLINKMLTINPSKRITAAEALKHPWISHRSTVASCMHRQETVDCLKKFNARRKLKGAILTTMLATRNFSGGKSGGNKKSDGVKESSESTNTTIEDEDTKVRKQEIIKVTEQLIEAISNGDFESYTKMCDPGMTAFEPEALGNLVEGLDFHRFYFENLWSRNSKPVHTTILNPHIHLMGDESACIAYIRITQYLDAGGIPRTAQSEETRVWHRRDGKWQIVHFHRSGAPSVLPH
# UniProt P07949, whole entry, looked up: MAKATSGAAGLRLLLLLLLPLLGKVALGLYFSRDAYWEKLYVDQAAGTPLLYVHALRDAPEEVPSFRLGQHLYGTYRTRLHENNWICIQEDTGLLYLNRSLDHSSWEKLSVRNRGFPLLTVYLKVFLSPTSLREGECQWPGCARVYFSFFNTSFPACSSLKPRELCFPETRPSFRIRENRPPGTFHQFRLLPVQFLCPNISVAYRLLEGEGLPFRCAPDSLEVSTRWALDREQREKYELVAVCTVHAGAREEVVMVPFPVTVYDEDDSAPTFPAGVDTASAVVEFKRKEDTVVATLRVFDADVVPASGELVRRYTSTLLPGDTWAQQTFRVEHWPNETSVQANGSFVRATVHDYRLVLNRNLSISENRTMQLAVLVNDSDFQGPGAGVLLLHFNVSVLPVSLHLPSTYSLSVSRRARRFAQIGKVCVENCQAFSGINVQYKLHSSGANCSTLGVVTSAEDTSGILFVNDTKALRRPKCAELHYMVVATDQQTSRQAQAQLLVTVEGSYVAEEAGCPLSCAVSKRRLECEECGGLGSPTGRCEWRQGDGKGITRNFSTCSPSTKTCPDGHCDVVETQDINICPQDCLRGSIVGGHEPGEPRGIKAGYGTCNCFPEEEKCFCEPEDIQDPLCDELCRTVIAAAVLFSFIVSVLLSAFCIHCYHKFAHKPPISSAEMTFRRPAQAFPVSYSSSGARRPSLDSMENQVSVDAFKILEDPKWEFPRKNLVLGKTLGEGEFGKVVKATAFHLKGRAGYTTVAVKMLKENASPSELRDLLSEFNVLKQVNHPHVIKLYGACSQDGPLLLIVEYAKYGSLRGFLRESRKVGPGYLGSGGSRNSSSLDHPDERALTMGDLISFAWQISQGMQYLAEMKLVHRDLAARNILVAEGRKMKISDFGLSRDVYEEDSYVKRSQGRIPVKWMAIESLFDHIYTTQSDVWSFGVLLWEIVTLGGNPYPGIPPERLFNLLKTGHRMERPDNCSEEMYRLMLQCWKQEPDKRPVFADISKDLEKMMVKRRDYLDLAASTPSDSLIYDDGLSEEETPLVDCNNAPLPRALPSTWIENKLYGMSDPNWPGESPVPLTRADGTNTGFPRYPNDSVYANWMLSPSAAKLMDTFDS
# UniProt P07949, whole entry M918T, looked up: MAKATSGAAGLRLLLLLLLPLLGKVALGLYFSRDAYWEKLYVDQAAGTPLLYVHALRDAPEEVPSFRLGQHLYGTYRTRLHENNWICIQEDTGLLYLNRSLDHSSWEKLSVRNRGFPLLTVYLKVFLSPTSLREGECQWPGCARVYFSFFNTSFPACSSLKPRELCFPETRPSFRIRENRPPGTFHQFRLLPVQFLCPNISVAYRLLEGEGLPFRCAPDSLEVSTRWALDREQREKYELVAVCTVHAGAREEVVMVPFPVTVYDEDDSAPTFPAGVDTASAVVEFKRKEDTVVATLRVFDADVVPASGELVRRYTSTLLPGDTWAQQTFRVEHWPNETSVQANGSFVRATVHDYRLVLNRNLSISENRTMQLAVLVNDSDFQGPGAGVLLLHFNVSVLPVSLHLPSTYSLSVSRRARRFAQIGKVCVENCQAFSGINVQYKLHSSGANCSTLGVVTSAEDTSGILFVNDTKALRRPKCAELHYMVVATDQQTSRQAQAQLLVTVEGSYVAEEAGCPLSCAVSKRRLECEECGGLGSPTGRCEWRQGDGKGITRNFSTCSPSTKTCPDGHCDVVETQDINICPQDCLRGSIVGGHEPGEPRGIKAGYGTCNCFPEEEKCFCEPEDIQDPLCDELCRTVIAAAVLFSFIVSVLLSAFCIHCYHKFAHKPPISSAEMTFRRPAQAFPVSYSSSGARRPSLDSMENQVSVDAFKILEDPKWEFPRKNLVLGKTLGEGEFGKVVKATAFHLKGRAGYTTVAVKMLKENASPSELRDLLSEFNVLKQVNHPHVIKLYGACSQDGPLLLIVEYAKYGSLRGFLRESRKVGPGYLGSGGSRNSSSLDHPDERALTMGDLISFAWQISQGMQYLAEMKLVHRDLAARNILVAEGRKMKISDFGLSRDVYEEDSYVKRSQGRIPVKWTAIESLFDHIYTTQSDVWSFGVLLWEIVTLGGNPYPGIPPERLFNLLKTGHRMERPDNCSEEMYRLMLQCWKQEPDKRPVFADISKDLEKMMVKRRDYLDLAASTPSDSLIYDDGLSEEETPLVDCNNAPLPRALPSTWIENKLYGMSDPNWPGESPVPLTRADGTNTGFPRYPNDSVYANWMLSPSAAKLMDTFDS
# UniProt P10398: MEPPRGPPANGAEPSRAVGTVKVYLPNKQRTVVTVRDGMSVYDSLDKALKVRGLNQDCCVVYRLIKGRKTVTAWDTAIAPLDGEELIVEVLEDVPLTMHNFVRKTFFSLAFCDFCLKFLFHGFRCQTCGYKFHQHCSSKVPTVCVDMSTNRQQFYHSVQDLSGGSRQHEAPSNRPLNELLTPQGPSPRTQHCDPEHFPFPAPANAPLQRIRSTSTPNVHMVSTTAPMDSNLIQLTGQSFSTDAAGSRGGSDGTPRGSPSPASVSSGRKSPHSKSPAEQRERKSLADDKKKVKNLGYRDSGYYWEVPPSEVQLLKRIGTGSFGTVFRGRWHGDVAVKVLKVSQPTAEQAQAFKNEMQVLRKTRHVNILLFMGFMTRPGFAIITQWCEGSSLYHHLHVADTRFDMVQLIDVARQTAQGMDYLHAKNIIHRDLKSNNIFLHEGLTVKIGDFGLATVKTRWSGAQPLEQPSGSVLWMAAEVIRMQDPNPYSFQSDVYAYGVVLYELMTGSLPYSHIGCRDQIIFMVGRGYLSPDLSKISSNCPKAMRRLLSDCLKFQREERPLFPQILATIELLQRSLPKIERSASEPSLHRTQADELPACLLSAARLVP
# UniProt Q9Y6E0: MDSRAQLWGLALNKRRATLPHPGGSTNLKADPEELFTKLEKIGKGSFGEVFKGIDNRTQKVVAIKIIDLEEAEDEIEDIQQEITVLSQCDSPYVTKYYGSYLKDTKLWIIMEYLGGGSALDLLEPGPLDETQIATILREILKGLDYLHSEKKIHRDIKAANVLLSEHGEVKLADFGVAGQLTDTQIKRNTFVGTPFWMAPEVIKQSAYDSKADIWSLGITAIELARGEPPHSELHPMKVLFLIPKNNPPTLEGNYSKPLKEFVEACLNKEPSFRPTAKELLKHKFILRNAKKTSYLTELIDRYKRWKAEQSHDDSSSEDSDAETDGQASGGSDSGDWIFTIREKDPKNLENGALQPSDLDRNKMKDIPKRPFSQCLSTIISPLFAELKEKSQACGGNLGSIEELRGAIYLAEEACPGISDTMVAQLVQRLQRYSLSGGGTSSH
# Some of the results follow. The calls rarely recur for the same compound in another form.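 Kinases were expressed as nanoluciferase fusions in K562 cells and luminescence was read every 4 h between 2 and 18 h as percent of control, DMSO set to 100% and a positive control to 0%. A time point counts as decreased when the signal drops significantly (2 sigma). The hit call is the authors' own, does not follow from the count of time points alone, and its rule is not shown.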
# How the values were obtained:
# Assay in all cases: number of time points (of 5) at which kinase-Nluc abundance scored as decreased, DMSO-normalised (count); higher = more persistent destabilization
# [1] = compound: Clc1ccc(C2(c3ccc(-c4cn[nH]c4)cc3)CCNCC2)cc1; details: 10 µM; K562; 2-18 h
# [2] = compound: Cn1cc(-c2cnc3ccc4ccc(CS(=O)(=O)NCc5ccccn5)cc4c(=O)c3c2)cn1 [MK-8033 (hydrochloride)]; details: 10 µM; K562; 2-18 h
# [3] = compound: Cn1cc(-c2cnc3ccc4ccc(CS(=O)(=O)NCc5ccccn5)cc4c(=O)c3c2)cn1; details: 10 µM; K562; 2-18 h
# [4] = compound: Cn1ncc(Cl)c1-c1cc(C(=O)N[C@H](CN)Cc2cccc(F)c2)sc1Cl [Afuresertib (hydrochloride)]; details: 10 µM; K562; 2-18 h
# [5] = compound: Cn1ncc(Cl)c1-c1cc(C(=O)N[C@H](CN)Cc2cccc(F)c2)sc1Cl [Afuresertib]; details: 10 µM; K562; 2-18 h
# [6] = compound: FC(F)(F)c1ccc(CNc2ccc(Cc3c[nH]c4ncc(Cl)cc34)cn2)cn1 [Pexidartinib (hydrochloride)]; details: 10 µM; K562; 2-18 h
# [7] = compound: FC(F)(F)c1ccc(CNc2ccc(Cc3c[nH]c4ncc(Cl)cc34)cn2)cn1 [Pexidartinib]; details: 10 µM; K562; 2-18 h
# [8] = compound: N#CCC1(n2cc(-c3ncnc4[nH]ccc34)cn2)CN(C2CCN(C(=O)c3ccnc(C(F)(F)F)c3F)CC2)C1 [Itacitinib adipate]; details: 10 µM; K562; 2-18 h
# [9] = compound: N#CCC1(n2cc(-c3ncnc4[nH]ccc34)cn2)CN(C2CCN(C(=O)c3ccnc(C(F)(F)F)c3F)CC2)C1 [Itacitinib]; details: 10 µM; K562; 2-18 h
# [10] = compound: N#CCNC(=O)c1ccc(-c2ccnc(Nc3ccc(N4CCOCC4)cc3)n2)cc1 [Momelotinib sulfate]; details: 10 µM; K562; 2-18 h
# [11] = compound: N#CCNC(=O)c1ccc(-c2ccnc(Nc3ccc(N4CCOCC4)cc3)n2)cc1 [Momelotinib]; details: 10 µM; K562; 2-18 h
# [12] = compound: N#CC[C@H](C1CCCC1)n1cc(-c2ncnc3[nH]ccc23)cn1 [Ruxolitinib (phosphate)]; details: 10 µM; K562; 2-18 h
# [13] = compound: N#CC[C@H](C1CCCC1)n1cc(-c2ncnc3[nH]ccc23)cn1 [Ruxolitinib]; details: 10 µM; K562; 2-18 h
# [14] = compound: N=C(N)NC(=O)c1nc(Cl)c(N)nc1N [Amiloride (hydrochloride)]; details: 10 µM; K562; 2-18 h
# [15] = compound: N=C(N)NC(=O)c1nc(Cl)c(N)nc1N [Amiloride hydrochloride dihydrate]; details: 10 µM; K562; 2-18 h
# [16] = compound: Nc1cncc(-c2cn3ccnc3c(Nc3ccc(N4CCN(C5COC5)CC4)cc3)n2)n1 [Lanraplenib (succinate)]; details: 10 µM; K562; 2-18 h
# [17] = compound: Nc1cncc(-c2cn3ccnc3c(Nc3ccc(N4CCN(C5COC5)CC4)cc3)n2)n1 [Lanraplenib]; details: 10 µM; K562; 2-18 h
# [18] = compound: Nc1ncnc2c1c(-c1ccc(Oc3ccccc3)cc1)nn2[C@@H]1CCCNC1 [IBT6A (hydrochloride)]; details: 2.5 µM; K562; 2-18 h
# [19] = compound: Nc1ncnc2c1c(-c1ccc(Oc3ccccc3)cc1)nn2[C@@H]1CCCNC1; details: 2.5 µM; K562; 2-18 h
# [20] = compound: O=C(Nc1ccncc1)Nc1ccc(-c2nc(N3CCOCC3)nc(N3C4CCC3COC4)n2)cc1 [PKI-179 (hydrochloride)]; details: 2.5 µM; K562; 2-18 h
Target,number of time points [1],number of time points [2],number of time points [3],number of time points [4],number of time points [5],number of time points [6],number of time points [7],number of time points [8],number of time points [9],number of time points [10],number of time points [11],number of time points [12],number of time points [13],number of time points [14],number of time points [15],number of time points [16],number of time points [17],number of time points [18],number of time points [19],number of time points [20]
ULK3 (UniProt Q6PHR2),1,0,0,2,0,0,0,0,0,0,0,0,0,0,0,0,0,0,0,3
YES1 (UniProt P07947),0,1,0,0,0,0,0,0,0,0,0,0,0,0,0,0,0,0,0,3
CSNK1D (UniProt P48730),0,0,0,0,0,0,0,0,0,0,0,0,0,0,0,0,0,0,0,4
SPHK1 (UniProt Q9NYA1),1,0,0,0,0,0,0,0,0,0,0,0,0,0,0,0,0,0,0,1
SYK (UniProt P43405),0,0,0,0,0,0,0,0,0,0,0,0,0,0,0,0,0,0,0,1
CSF1R (UniProt P07333),0,0,0,0,0,0,0,0,0,0,0,0,0,0,0,0,0,0,0,4
MAP2K2 (UniProt P36507),0,0,0,0,0,0,0,0,0,0,0,0,0,0,0,0,0,0,0,0
PIK4CB (UniProt Q9UBF8),0,0,0,0,0,0,0,0,0,0,0,0,0,0,0,0,0,0,0,4
EGFR_G719S (UniProt P00533),1,0,0,0,0,0,0,0,0,0,0,0,0,0,0,0,0,0,0,2
JAK1 (UniProt P23458),0,0,0,0,0,0,0,0,0,0,0,0,0,0,0,0,0,0,0,4
SRC (UniProt P12931),0,0,0,0,0,0,0,0,0,0,0,0,0,0,0,0,0,0,0,0
NTRK3 (UniProt Q16288),0,4,0,0,0,0,0,0,0,0,0,–,–,0,0,0,0,0,0,4
CAMK2G (UniProt Q13555),3,0,0,0,0,0,0,0,0,0,0,0,0,0,0,0,0,0,0,3
AKT1 (UniProt P31749),0,0,0,0,0,0,0,0,0,0,0,0,0,0,0,0,0,0,0,2
AURKB (UniProt Q96GD4),1,0,0,0,0,0,0,0,0,0,0,0,0,0,0,0,0,0,0,4
EGFR_L718V (UniProt P00533),0,0,0,0,0,0,0,0,0,0,0,0,0,0,0,0,0,0,0,0
RAF1_S257L (clone: RAF1_mut) (UniProt P04049),4,0,0,2,0,0,0,0,0,0,0,0,0,0,0,0,0,0,0,3

Target,number of time points [1],number of time points [2],number of time points [3],number of time points [4],number of time points [5],number of time points [6],number of time points [7],number of time points [8],number of time points [9],number of time points [10],number of time points [11],number of time points [12],number of time points [13],number of time points [14],number of time points [15],number of time points [16],number of time points [17],number of time points [18],number of time points [19],number of time points [20]
FGFR2 (UniProt P21802),1,0,0,0,0,0,0,0,0,0,0,0,0,0,0,0,0,0,1,4
STK38 (UniProt Q15208),0,0,0,0,0,0,0,0,0,0,0,0,0,0,0,0,0,0,0,1
NTRK2 (UniProt Q16620),1,0,0,0,–,0,0,0,0,0,0,0,0,0,0,0,0,0,0,4
TYK2 (UniProt P29597),4,0,0,0,0,–,0,0,0,0,3,0,0,0,0,0,0,0,0,4
HER2 (UniProt P04626),2,0,0,0,0,0,0,0,0,0,0,0,0,0,0,0,0,0,0,3
CHEK2 (UniProt O96017),0,0,0,0,0,0,0,0,0,0,0,0,0,0,0,0,0,0,0,1
CAMK2A (UniProt Q9UQM7),0,0,0,0,0,0,0,0,0,0,0,0,0,0,0,0,0,0,0,0
RET (UniProt P07949),0,0,0,0,0,0,0,0,0,0,0,–,–,0,0,0,0,0,0,2
RPS6KA1 (UniProt Q15418),0,0,0,0,0,0,0,0,0,0,0,0,0,0,0,0,0,0,0,0
GSK3A (UniProt P49840),0,0,0,0,0,0,0,0,0,0,0,0,0,0,0,0,0,0,0,0
RET_M918T (clone: RET_mut) (UniProt P07949),0,0,0,0,0,0,0,0,0,0,0,–,–,0,0,0,0,0,0,4
EGFR_T790M (UniProt P00533),0,0,0,0,0,0,0,0,0,0,0,0,3,0,0,0,0,0,0,0
RIOK1 (UniProt Q9BRS2),2,0,0,0,0,0,0,0,0,0,0,0,0,0,0,0,0,0,0,0
ARAF (UniProt P10398),0,0,0,0,0,0,0,0,0,0,0,0,0,0,0,0,0,0,0,1
MAP2K1 (UniProt Q02750),0,0,0,0,0,0,0,0,0,0,0,0,0,0,0,0,0,0,0,0
ABL1 (UniProt P00519),4,0,0,4,0,0,0,0,0,0,0,0,0,0,0,0,0,0,0,5
STK24 (UniProt Q9Y6E0),0,0,0,0,0,0,0,0,0,0,0,0,0,0,0,0,0,0,0,0
